No constants are given. Whether binding was seen depends on the method and setting. Binding seen in cells or lysates may run through a third protein. A yes stands for co-enrichment or nearness to the bait. Other partners may have been found.
B1: PAR-6B (protein, UniProt Q9BYG5 1-372)
chain: MNRSHRHGAGSGCLGTMEVKSKFGAEFRRFSLERSKPGKFEEFYGLLQHVHKIPNVDVLVGYADIHGDLLPINNDDNYHKAVSTANPLLRIFIQKKEEADYSAFGTDTLIKKKNVLTNVLRPDNHRKKPHIVISMPQDFRPVSSIIDVDILPETHRRVRLYKYGTEKPLGFYIRDGSSVRVTPHGLEKVPGIFISRLVPGGLAQSTGLLAVNDEVLEVNGIEVSGKSLDQVTDMMIANSRNLIITVRPANQRNNVVRNSRTSGSSGQSTDNSLLGYPQQIEPSFEPEDEDSEEDDIIIEDNGVPQQIPKAVPNTESLESLTQIELSFESGQNGFIPSNEVSLAAIASSSNTEFETHAPDQKLLEEDGTIITL
B2: PKCι (PRKCI) (enzyme, UniProt P41743 1-596)
chain: MPTQRDSSTMSHTVAGGGSGDHSHQVRVKAYYRGDIMITHFEPSISFEGLCNEVRDMCSFDNEQLFTMKWIDEEGDPCTVSSQLELEEAFRLYELNKDSELLIHVFPCVPERPGMPCPGEDKSIYRRGARRWRKLYCANGHTFQAKRFNRRAHCAICTDRIWGLGRQGYKCINCKLLVHKKCHKLVTIECGRHSLPQEPVMPMDQSSMHSDHAQTVIPYNPSSHESLDQVGEEKEAMNTRESGKASSSLGLQDFDLLRVIGRGSYAKVLLVRLKKTDRIYAMKVVKKELVNDDEDIDWVQTEKHVFEQASNHPFLVGLHSCFQTESRLFFVIEYVNGGDLMFHMQRQRKLPEEHARFYSAEISLALNYLHERGIIYRDLKLDNVLLDSEGHIKLTDYGMCKEGLRPGDTTSTFCGTPNYIAPEILRGEDYGFSVDWWALGVLMFEMMAGRSPFDIVGSSDNPDQNTEDYLFQVILEKQIRIPRSLSVKAASVLKSFLNKDPKERLGCHPQTGFADIQGHPFFRNVDWDMMEQKQVVPPFKPNISGEFGLDNFDSQFTNEPVQLTPDDDDIVRKIDQSEFEGFEYINPLLMSAEECV
B3: LLGL1 (protein, UniProt Q15334 1-1064)
chain: MMKFRFRRQGADPQREKLKQELFAFNKTVEHGFPNQPSALAFDPELRIMAIGTRSGAVKIYGAPGVEFTGLHRDAATVTQMHFLTGQGRLLSLLDDSSLHLWEIVHHNGCAHLEEALSFQLPSRPGFDGASAPLSLTRVTVVLLVAASDIAALGTEGSSVFFLDVTTLTLLEGQTLAPGEVLRSVPDDYRCGKALGPVESLQGHLRDPTKILIGYSRGLLVIWNQASQCVDHIFLGNQQLESLCWGRDSSTVVSSHSDGSYAVWSVDAGSFPTLQPTVATTPYGPFPCKAINKILWRNCESGGHFIIFSGGMPRASYGDRHCVSVLRAETLVTLDFTSRIIDFFTVHSTRPEDEFDDPQALAVLLEEELVVLDLQTPGWPAVPAPYLAPLHSSAITCSAHVASVPAKLWARIVSAGEQQSPQPVSSALSWPITGGRNLAQEPSQRGLLLTGHEDGTVRFWDASGVALRPLYKLSTAGLFQTDCEHADSLAQAAEDDWPPFRKVGCFDPYSDDPRLGVQKVALCKYTAQMVVAGTAGQVLVLELSDVPVEQAVSVAIIDLLQDREGFTWKGHERLSPRTGPLPWPAGFQPRVLVQCLPPAAVTAVTLHTEWSLVAFGTSHGFGLFDYQRKSPVLARCTLHPNDSLAMEGPLSRVKSLKKSLRQSFRRIRKSRVSGKKRAANASSKLQEANAQLAEQACPHDVEMTPVQRRIEPRSADDSLSGVVRCLYFADTFLRDGAHHGPTMWAGTNSGSVFAYALEVPAAAVGGEKRPEQAVEAVLGKEVQLMHRAPVVAIAVLDGRGRPLPEPYEASRDLAQAPDMQGGHAVLIASEEQFKVFTLPKVSAKTKFKLTAHEGCRVRKVALATFASVACEDYAETCLACLTNLGDVHVFSVPGLRPQVHYSCIRKEDISGIASCVFTRHGQGFYLISPSEFERFSLSARNITEPLCSLDINWPRDATQASYRIRESPKLSQANGTPSILLAPQSLDGSPDPAHSMGPDTPEPPEAALSPMSIDSATSADTTLDTTGDVTVEDVKDFLGSSEESEKNLRNLAEDEAHACAILIK
B4: VANGL1 (protein, UniProt Q8TAA9 1-524)
chain: MDTESTYSGYSYYSSHSKKSHRQGERTRERHKSPRNKDGRGSEKSVTIQPPTGEPLLGNDSTRTEEVQDDNWGETTTAITGTSEHSISQEDIARISKDMEDSVGLDCKRYLGLTVASFLGLLVFLTPIAFILLPPILWRDELEPCGTICEGLFISMAFKLLILLIGTWALFFRKRRADMPRVFVFRALLLVLIFLFVVSYWLFYGVRILDSRDRNYQGIVQYAVSLVDALLFIHYLAIVLLELRQLQPMFTLQVVRSTDGESRFYSLGHLSIQRAALVVLENYYKDFTIYNPNLLTASKFRAAKHMAGLKVYNVDGPSNNATGQSRAMIAAAARRRDSSHNELYYEEAEHERRVKKRKARLVVAVEEAFIHIQRLQAEEQQKAPGEVMDPREAAQAIFPSMARALQKYLRITRQQNYHSMESILQHLAFCITNGMTPKAFLERYLSAGPTLQYDKDRWLSTQWRLVSDEAVTNGLRDGIVFVLKCLDFSLVVNVKKIPFIILSEEFIDPKSHKFVLRLQSETSV

Chains of the proteins cited; added tags and fusions are not shown. Residues count along the entry.
UniProt P54760, residues 16-987: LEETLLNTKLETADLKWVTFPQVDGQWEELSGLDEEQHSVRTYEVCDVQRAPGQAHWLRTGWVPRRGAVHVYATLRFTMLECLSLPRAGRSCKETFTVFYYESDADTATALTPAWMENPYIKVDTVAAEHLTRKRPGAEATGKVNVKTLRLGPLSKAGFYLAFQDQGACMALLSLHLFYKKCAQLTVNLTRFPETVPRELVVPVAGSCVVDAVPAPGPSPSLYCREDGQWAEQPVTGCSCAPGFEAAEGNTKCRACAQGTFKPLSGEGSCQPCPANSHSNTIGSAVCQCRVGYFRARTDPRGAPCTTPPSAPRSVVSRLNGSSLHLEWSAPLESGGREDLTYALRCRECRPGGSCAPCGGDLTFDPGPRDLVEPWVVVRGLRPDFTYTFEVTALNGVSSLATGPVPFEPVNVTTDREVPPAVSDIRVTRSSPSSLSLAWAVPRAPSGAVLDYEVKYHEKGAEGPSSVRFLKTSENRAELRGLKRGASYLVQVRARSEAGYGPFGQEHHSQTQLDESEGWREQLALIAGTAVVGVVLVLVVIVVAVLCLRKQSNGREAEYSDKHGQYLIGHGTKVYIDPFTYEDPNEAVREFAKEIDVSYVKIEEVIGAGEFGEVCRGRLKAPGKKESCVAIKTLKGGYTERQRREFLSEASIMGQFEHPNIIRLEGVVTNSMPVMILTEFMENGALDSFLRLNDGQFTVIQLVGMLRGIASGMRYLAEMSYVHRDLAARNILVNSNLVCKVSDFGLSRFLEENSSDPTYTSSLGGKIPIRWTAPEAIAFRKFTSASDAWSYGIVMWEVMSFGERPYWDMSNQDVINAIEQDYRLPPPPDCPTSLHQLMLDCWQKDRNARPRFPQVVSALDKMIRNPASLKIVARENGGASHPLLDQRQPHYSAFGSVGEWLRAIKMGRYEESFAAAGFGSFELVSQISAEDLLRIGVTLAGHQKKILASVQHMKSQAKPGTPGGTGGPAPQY
UniProt P54764, residues 20-986: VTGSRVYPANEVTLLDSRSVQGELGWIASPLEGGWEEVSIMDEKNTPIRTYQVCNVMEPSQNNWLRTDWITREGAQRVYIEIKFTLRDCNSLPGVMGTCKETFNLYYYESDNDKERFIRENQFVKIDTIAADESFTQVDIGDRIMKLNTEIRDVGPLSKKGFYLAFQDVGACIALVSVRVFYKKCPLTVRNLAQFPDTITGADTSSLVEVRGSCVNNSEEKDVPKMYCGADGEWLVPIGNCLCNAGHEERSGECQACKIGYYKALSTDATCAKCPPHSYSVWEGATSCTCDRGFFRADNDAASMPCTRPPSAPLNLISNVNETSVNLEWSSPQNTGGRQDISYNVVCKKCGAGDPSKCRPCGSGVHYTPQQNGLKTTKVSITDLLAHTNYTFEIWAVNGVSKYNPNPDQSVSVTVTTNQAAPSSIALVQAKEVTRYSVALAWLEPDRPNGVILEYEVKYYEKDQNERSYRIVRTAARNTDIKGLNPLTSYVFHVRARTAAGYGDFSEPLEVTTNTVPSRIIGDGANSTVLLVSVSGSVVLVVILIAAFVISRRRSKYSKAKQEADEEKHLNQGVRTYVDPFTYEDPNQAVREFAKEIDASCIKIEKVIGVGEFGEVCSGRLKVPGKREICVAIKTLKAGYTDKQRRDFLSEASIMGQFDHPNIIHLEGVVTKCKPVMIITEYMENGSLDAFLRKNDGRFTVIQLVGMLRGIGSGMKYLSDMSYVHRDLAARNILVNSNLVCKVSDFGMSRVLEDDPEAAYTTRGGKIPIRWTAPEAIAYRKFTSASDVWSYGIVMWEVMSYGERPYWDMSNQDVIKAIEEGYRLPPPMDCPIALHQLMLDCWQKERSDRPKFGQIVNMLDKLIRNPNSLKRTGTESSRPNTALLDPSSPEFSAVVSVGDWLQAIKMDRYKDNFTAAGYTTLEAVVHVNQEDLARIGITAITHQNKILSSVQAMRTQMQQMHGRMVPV
UniProt P29323, residues 19-1055: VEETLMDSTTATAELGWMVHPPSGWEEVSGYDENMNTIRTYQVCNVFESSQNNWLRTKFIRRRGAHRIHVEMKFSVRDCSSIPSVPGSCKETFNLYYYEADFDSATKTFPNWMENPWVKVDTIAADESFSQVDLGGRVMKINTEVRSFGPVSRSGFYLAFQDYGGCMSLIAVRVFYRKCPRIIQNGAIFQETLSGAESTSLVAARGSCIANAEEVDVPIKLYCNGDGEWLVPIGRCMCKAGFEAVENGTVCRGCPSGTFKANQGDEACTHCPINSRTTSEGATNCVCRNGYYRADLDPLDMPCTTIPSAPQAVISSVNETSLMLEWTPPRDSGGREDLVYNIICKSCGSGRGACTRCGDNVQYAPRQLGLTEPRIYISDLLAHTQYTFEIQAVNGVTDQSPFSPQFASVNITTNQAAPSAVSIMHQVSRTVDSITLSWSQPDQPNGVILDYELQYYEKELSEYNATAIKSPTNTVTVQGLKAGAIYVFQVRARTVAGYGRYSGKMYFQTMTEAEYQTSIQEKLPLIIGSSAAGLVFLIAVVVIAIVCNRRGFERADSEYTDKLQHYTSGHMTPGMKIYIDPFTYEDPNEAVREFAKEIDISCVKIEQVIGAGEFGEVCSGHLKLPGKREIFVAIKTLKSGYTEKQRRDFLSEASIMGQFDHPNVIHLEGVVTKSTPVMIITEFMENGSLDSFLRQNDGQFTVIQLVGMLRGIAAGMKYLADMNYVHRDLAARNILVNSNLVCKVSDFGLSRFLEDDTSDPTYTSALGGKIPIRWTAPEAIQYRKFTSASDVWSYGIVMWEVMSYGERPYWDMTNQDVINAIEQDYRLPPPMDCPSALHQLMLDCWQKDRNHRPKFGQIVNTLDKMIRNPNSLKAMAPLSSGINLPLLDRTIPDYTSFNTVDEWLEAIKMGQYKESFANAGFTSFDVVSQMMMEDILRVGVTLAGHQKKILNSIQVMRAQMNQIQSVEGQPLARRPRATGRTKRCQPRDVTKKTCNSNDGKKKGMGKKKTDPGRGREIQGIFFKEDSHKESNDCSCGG
UniProt P54753, residues 34-998: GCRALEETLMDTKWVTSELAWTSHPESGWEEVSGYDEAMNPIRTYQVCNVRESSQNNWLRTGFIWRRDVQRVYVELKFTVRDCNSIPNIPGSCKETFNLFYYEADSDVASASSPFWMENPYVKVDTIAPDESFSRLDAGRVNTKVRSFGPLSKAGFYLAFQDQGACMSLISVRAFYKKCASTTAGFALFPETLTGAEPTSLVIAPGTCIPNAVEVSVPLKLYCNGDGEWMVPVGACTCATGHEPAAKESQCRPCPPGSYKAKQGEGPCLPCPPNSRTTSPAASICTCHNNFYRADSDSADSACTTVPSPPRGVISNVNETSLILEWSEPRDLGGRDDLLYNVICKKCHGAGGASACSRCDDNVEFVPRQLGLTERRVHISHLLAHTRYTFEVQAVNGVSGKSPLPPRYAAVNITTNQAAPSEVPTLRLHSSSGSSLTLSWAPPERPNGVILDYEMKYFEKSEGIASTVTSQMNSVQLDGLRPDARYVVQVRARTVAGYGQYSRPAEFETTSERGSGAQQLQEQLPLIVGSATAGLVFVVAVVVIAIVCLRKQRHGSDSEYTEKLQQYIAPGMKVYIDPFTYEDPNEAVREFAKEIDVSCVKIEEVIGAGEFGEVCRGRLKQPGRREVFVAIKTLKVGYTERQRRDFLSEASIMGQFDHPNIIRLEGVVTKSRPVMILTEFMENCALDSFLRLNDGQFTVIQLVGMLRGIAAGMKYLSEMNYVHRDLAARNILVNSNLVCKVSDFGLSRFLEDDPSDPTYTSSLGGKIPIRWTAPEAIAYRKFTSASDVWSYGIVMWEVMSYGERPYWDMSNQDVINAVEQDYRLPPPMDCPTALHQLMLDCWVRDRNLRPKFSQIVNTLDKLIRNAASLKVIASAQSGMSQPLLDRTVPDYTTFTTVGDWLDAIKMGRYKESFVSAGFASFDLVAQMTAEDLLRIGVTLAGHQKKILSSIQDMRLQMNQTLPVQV
UniProt Q14160: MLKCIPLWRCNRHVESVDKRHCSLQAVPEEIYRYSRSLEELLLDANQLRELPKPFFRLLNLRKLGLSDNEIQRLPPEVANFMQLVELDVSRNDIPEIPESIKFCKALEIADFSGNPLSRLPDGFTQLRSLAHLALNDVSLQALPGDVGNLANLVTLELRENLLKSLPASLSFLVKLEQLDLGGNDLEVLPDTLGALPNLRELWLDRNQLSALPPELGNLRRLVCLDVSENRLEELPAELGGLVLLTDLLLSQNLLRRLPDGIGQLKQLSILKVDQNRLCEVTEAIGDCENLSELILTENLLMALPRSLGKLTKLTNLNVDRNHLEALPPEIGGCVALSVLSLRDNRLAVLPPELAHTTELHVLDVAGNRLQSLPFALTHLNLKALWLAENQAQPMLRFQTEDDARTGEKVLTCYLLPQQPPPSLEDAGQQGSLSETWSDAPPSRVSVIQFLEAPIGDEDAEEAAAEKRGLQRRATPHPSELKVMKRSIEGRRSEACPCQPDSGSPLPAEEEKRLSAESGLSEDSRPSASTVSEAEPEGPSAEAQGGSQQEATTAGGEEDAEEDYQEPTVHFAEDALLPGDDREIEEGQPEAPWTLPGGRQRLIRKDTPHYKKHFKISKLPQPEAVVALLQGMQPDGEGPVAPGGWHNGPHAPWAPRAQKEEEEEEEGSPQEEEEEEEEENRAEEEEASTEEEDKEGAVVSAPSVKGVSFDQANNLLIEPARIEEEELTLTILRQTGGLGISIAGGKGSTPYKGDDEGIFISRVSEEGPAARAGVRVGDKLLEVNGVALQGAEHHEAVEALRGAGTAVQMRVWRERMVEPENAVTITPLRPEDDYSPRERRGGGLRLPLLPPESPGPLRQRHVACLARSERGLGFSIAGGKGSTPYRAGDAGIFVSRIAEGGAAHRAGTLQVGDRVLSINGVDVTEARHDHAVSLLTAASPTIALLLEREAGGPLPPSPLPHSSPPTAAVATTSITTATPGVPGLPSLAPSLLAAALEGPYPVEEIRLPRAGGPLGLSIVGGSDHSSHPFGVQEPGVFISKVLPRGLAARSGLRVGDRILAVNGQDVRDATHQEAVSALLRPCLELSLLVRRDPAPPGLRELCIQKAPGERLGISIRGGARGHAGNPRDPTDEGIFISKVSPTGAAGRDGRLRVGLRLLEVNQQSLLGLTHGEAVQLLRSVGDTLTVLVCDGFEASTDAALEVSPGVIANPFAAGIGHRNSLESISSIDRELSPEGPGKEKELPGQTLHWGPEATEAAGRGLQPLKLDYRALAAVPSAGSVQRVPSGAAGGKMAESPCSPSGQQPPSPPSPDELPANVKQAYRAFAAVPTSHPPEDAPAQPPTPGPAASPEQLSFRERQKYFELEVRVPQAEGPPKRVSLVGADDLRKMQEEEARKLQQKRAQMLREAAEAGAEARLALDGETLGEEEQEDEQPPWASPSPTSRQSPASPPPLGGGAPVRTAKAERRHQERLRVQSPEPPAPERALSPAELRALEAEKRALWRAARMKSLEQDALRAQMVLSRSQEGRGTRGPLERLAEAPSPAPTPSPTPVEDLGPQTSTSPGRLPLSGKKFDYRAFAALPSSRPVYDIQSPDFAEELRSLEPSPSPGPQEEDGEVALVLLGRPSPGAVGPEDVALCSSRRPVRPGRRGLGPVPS
UniProt Q7KZI7: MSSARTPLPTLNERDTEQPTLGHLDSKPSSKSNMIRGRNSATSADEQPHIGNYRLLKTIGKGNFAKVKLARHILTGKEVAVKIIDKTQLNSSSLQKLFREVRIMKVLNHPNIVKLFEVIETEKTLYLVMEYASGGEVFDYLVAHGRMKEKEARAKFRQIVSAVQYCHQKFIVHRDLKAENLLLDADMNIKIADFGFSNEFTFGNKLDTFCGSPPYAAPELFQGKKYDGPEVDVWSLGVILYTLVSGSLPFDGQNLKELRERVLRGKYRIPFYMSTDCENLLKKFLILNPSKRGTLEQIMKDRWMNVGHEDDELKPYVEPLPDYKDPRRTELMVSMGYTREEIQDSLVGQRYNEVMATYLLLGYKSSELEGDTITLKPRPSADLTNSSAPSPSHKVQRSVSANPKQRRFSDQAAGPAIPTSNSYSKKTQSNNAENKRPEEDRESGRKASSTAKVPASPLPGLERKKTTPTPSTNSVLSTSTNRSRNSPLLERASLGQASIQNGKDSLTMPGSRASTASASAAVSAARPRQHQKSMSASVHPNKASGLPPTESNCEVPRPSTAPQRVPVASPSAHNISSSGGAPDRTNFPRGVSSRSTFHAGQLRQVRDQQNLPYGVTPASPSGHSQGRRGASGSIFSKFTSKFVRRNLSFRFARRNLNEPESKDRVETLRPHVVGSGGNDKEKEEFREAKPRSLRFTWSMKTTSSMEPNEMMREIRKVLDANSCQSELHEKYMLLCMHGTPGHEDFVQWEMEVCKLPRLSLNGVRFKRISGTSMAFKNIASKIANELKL

Legend:
EPHB4-BirA*-FLAG (human) = EPHB4-BirA*-FLAG (human) (UniProt P54760); assay: proximity labelling
EPHA4-BirA*-FLAG (human) = EPHA4-BirA*-FLAG (human) (UniProt P54764); assay: proximity labelling
EPHB2-BirA*-FLAG (human) = EPHB2-BirA*-FLAG (human) (UniProt P29323); assay: proximity labelling
EPHB3-BirA*-FLAG (human) = EPHB3-BirA*-FLAG (human) (UniProt P54753); assay: proximity labelling
[1] = molecular target: GFP-PAR-3 (wild type) (rat) (UniProt Q9Z340); assay: affinity purification with mass spectrometry

Molecule	binding (EPHB4-BirA*-FLAG (human))	binding (EPHA4-BirA*-FLAG (human))	binding (EPHB2-BirA*-FLAG (human))	binding (EPHB3-BirA*-FLAG (human))	binding [1]
EPB41L5 (from UniProt Q9HCM4 1-733)	binds	binds	binds	binds	
SCRIB (from UniProt Q14160 1-1655)	binds	binds	binds	binds	
AMOT (from UniProt Q4VCS5 1-1084)					binds
PAR-3 (PARD3), endogenous (from UniProt Q8TEW0 1-1356)	binds				
NCK2 (from UniProt O43639 1-380)		binds			
MARK2 (from UniProt Q7KZI7 1-788) (enzyme)	binds	binds	binds	binds	
B1	binds				binds
B2	binds				
B3	binds	binds	binds	binds	
B4	binds	binds	binds	binds	

— paper doi:10.1101/2020.09.06.285270
